Results are given in words; binding and its absence hold for the method and conditions named. Some entries that bind do so weakly or less than the wild type.
Columns and labels:
[1] = biological target: soluble DEC-205 ectodomain (ECD), residues 1-1664 (human) (UniProt O60449); experiment: AUC; sedimentation velocity, DEC-205 ECD at pH 7.4; both purified
[2] = biological target: soluble DEC-205 ectodomain (ECD), residues 1-1664 (human) (UniProt O60449); experiment: AUC; sedimentation velocity, DEC-205 ECD at pH 7.7, with CpG oligonucleotide added; both purified
[3] = biological target: soluble DEC-205 ectodomain (ECD), residues 1-1664 (human) (UniProt O60449); experiment: AUC; sedimentation velocity, DEC-205 ECD 0.2 mg ml^-1, BIS-TRIS buffer pH 6.0, 150 mM NaCl, 20 °C, 37,000 RPM; both purified
[4] = biological target: soluble DEC-205 ectodomain (ECD), residues 1-1664 (human) (UniProt O60449); experiment: SEC-MALS; DEC-205 ECD, 50 ul at 1 mg ml^-1, Superdex 200 5/150, BIS-TRIS buffer (10 mM BIS-TRIS pH 6.0, 150 mM NaCl); both purified

By UniProt entry, the sequences of proteins in these tests, tags left out. Where a name states a change or a piece, a line headed by the entry shows the natural chain unless it says otherwise. Residues count along the entry.
UniProt O60449, residues 28-1664: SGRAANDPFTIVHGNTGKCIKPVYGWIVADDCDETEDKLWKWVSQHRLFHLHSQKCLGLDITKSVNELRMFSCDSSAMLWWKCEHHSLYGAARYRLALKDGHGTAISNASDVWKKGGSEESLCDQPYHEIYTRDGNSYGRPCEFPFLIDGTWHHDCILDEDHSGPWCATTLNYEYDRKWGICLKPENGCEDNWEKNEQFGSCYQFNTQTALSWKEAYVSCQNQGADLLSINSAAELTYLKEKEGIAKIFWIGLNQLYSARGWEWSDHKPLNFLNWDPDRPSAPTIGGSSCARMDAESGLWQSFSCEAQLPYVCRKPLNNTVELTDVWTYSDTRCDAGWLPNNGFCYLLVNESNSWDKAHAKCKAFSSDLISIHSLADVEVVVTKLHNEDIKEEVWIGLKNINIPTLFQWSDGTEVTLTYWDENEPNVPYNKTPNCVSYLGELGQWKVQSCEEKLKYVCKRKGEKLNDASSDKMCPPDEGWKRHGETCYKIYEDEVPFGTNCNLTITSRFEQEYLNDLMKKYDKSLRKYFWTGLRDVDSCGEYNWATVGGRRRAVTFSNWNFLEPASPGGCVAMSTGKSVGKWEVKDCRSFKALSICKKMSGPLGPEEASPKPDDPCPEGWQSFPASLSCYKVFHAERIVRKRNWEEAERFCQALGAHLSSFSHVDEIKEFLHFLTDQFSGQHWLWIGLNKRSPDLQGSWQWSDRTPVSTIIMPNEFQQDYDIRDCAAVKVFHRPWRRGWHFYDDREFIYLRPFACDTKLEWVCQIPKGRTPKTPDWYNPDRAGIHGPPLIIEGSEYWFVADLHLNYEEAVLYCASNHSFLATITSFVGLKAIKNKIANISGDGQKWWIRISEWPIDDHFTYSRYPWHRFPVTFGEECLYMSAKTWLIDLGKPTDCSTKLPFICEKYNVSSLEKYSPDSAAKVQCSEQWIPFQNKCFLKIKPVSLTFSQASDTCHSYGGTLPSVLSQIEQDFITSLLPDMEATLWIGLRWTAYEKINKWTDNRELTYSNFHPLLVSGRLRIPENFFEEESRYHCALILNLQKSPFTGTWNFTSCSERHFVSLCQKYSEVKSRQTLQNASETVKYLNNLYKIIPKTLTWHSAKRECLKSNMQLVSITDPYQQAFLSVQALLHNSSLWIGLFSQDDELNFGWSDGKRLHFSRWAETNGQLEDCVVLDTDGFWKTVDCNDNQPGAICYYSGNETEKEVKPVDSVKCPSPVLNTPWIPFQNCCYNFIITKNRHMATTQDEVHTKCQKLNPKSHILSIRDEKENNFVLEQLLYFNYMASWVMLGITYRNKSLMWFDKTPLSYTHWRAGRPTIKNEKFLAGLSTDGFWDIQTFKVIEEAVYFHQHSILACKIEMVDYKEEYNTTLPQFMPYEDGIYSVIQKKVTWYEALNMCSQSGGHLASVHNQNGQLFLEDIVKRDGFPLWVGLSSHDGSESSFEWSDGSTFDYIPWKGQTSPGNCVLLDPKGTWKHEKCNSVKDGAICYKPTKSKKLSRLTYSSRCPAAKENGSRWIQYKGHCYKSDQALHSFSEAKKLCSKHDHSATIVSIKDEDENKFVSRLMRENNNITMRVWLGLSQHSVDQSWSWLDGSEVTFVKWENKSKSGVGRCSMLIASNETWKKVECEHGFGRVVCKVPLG

- binding [1]: binds weakly
Substance: soluble DEC-205 ectodomain (ECD), residues 1-1664 (from UniProt O60449-1 28-1664) (domain or fragment)
- binding [2]: no binding (condition: at pH 7.7 upon the addition of CpG)
- binding [3]: no binding (condition: at pH 6.0 (0.2 mg ml^-1))
- binding [4]: no binding (condition: at pH 6.0 (1 mg ml^-1 loaded))
